Source: PubChem BioAssay AID1259308 (NCATS, 2017)
Here is an unselected part of about 59,000 deposited reagents. About 1,510 of all reagents (2.6%) were called active. 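Calls use total luciferase alone and ignore viability, so some active siRNAs may act by altering cell number.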 Entries without a mark were called inactive. Reagents against one gene are numbered here. Not all columns of the deposit are shown. No sequences are given here.

Purpose: 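Genes whose loss raises luciferase production in HEK293 cells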 (primary screen)
Cells: human HEK293 embryonic kidney cells stably expressing firefly luciferase (HEK-CMV-Luc2-Hygro)
Reagents: single siRNA against human genes, 0.8 pmol siRNA per well
Timing: 72 h
Measurement: 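Reporter luminescence and viable-cell signal on separate replicate plates, given as percent of non-targeting control and median/MAD z-scores, plus per-cell luciferase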
Reading the numbers: total luciferase, z-score: higher = more reporter protein produced
Active means: 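An siRNA counts as active if its total luciferase robust z-score exceeds 3; genes with two or more such siRNAs out of three were retested with fresh siRNAs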
Calls: active = raised luciferase; inactive = no rise

gene symbol	siRNA no.	total luciferase, z-score
KRABD3 (KRAB domain containing 3)	1	1.65
KRABD3 (KRAB domain containing 3)	2	0.432
KRABD3 (KRAB domain containing 3)	3	-0.594
PAXBP1 (PAX3 and PAX7 binding protein 1)	1	0.348
PAXBP1 (PAX3 and PAX7 binding protein 1)	2	1.46
PAXBP1 (PAX3 and PAX7 binding protein 1)	3	1.42
PARL (presenilin associated rhomboid like)	1	-1.95
PARL (presenilin associated rhomboid like)	2	-1.23
PARL (presenilin associated rhomboid like)	3	-0.112
CCDC47 (coiled-coil domain containing 47)	1	-0.667
CCDC47 (coiled-coil domain containing 47)	2	-0.0421
CCDC47 (coiled-coil domain containing 47)	3	-0.267
KCNJ10 (potassium inwardly rectifying channel subfamily J member 10)	1	4.43 (active)
KCNJ10 (potassium inwardly rectifying channel subfamily J member 10)	2	6.78 (active)
KCNJ10 (potassium inwardly rectifying channel subfamily J member 10)	3	0.0514
CSPP1 (centrosome and spindle pole associated protein 1)	1	-1.1
CSPP1 (centrosome and spindle pole associated protein 1)	2	-0.0386
CSPP1 (centrosome and spindle pole associated protein 1)	3	-1.08
AK8 (adenylate kinase 8)	1	-0.223
AK8 (adenylate kinase 8)	2	0.476
AK8 (adenylate kinase 8)	3	1.71
NTRK2 (neurotrophic receptor tyrosine kinase 2)	1	-0.391
NTRK2 (neurotrophic receptor tyrosine kinase 2)	2	-1.3
NTRK2 (neurotrophic receptor tyrosine kinase 2)	3	-0.456
OR7D2 (olfactory receptor family 7 subfamily D member 2)	1	-0.986
OR7D2 (olfactory receptor family 7 subfamily D member 2)	2	-0.394
OR7D2 (olfactory receptor family 7 subfamily D member 2)	3	1.02
RARS1 (arginyl-tRNA synthetase 1)	1	0.0701
RARS1 (arginyl-tRNA synthetase 1)	2	-0.4
RARS1 (arginyl-tRNA synthetase 1)	3	-0.0705
TMEM158 (transmembrane protein 158)	1	0.592
TMEM158 (transmembrane protein 158)	2	-0.84
TMEM158 (transmembrane protein 158)	3	0.233
WASHC3 (WASH complex subunit 3)	1	-0.00662
WASHC3 (WASH complex subunit 3)	2	-0.281
WASHC3 (WASH complex subunit 3)	3	4.49 (active)
ETNK2 (ethanolamine kinase 2)	1	-0.624
ETNK2 (ethanolamine kinase 2)	2	-0.436
ETNK2 (ethanolamine kinase 2)	3	1.49
MLLT6 (MLLT6, PHD finger containing)	1	0.815
MLLT6 (MLLT6, PHD finger containing)	2	-0.628
MLLT6 (MLLT6, PHD finger containing)	3	-0.277
ALKBH4 (alkB homolog 4, lysine demethylase)	1	2.95
ALKBH4 (alkB homolog 4, lysine demethylase)	2	-0.878
ALKBH4 (alkB homolog 4, lysine demethylase)	3	0.793

Ordered by “total luciferase, z-score” (lowest first): 5 of the entries above
gene symbol	siRNA no.	total luciferase, z-score
OR7D2 (olfactory receptor family 7 subfamily D member 2)	1	-0.986
NTRK2 (neurotrophic receptor tyrosine kinase 2)	3	-0.456
OR7D2 (olfactory receptor family 7 subfamily D member 2)	2	-0.394
RARS1 (arginyl-tRNA synthetase 1)	1	0.0701
OR7D2 (olfactory receptor family 7 subfamily D member 2)	3	1.02

Continued:
gene symbol	siRNA no.	total luciferase, z-score
OSCP1	1	-1.26
OSCP1	2	1.13
OSCP1	3	0.256
REXO2 (RNA exonuclease 2)	1	-0.0883
REXO2 (RNA exonuclease 2)	2	0.0522
REXO2 (RNA exonuclease 2)	3	0.202
C19orf25 (chromosome 19 open reading frame 25)	1	0.567
C19orf25 (chromosome 19 open reading frame 25)	2	1.17
C19orf25 (chromosome 19 open reading frame 25)	3	0.234
ZC3H11B (zinc finger CCCH-type containing 11B)	1	0.595
ZC3H11B (zinc finger CCCH-type containing 11B)	2	-2.56
ZC3H11B (zinc finger CCCH-type containing 11B)	3	0.805
STAU1 (staufen double-stranded RNA binding protein 1)	1	-0.00657
STAU1 (staufen double-stranded RNA binding protein 1)	2	-0.621
STAU1 (staufen double-stranded RNA binding protein 1)	3	-0.636
TMEM204 (transmembrane protein 204)	1	-1.08
TMEM204 (transmembrane protein 204)	2	-0.0881
TMEM204 (transmembrane protein 204)	3	-1.86
ANTXR2 (ANTXR cell adhesion molecule 2)	1	0.295
ANTXR2 (ANTXR cell adhesion molecule 2)	2	0.98
ANTXR2 (ANTXR cell adhesion molecule 2)	3	3.67 (active)
CD33 (CD33 molecule)	1	0.497
CD33 (CD33 molecule)	2	-0.93
CD33 (CD33 molecule)	3	-0.0138
NELFCD (negative elongation factor complex member C/D)	1	2.21
NELFCD (negative elongation factor complex member C/D)	2	1.89
NELFCD (negative elongation factor complex member C/D)	3	1.9
ARHGAP6 (Rho GTPase activating protein 6)	1	-0.657
ARHGAP6 (Rho GTPase activating protein 6)	2	-0.416
ARHGAP6 (Rho GTPase activating protein 6)	3	0.284
